Data as given in PubChem BioAssay AID1259286 (Sanger Institute, 2017)
Here is a random part of 794 reagents. Of all reagents, 17 (2.1%) were called active. 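Calls use knock-down alone only; synergy above 0.15 marked separately; viability seems capped at control level; exposure time not given.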 Further read-outs or replicates are left out here. The record does not give: the amount of reagent, the time to read-out.

Purpose: 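Kinome knock-downs lethal on their own or synergistic with anchor drugs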 (primary screen)
Cells: NCI-H630 human colorectal cancer cells
Reagent: siRNA pool against human genes
Challenge: anchor drugs BYL719 at 1 µM, cetuximab at 5 µg/ml or trametinib at 10 nM, or DMSO vehicle alone; exposure time not given
Measured: 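Viability relative to non-targeting pool wells, averaged over replicates, with robust z-score for knock-down alone and a synergy score for each anchor drug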
Scale: viability z-score, knock-down alone: higher = more viable cells, weaker knock-down effect
Hit rule: 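a gene is called essential when its knock-down-alone viability robust z-score is below -3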
Meaning of the calls: active = essential when knocked down alone; inactive = not essential alone

| target | viability z-score, knock-down alone | call |
| --- | --- | --- |
| PFKFB2 (GeneID 5208) | -0.754 | inactive |
| PAK5 (GeneID 57144) | 0.464 | inactive |
| WNK1 (GeneID 65125) | 0.464 | inactive |
| BMPR1B (GeneID 658) | 0.464 | inactive |
| PKMYT1 (GeneID 9088) | 0.464 | inactive |
| MAP3K1 (GeneID 4214) | 0.464 | inactive |
| JAK2 (GeneID 3717) | 0.464 | inactive |
| POLR2B (GeneID 5431) | 0.464 | inactive |
| ERN2 (GeneID 10595) | 0.464 | inactive |
| EPHB3 (GeneID 2049) | -0.425 | inactive |
| TSSK4 (GeneID 283629) | 0.464 | inactive |
| EFNB3 (GeneID 1949) | 0.464 | inactive |
| SMAD4 (GeneID 4089) | -0.378 | inactive |
| RBKS (GeneID 64080) | 0.464 | inactive |
| TRPM6 (GeneID 140803) | 0.464 | inactive |
| TAOK3 (GeneID 51347) | 0.464 | inactive |
| CDK20 (GeneID 23552) | -1.47 | inactive |
| NF1 (GeneID 4763) | 0.464 | inactive |
| TRIO (GeneID 7204) | -0.281 | inactive |
| MAP3K11 (GeneID 4296) | 0.464 | inactive |

Targets above whose target name starts with P or p (4):
| target | viability z-score, knock-down alone | call |
| --- | --- | --- |
| PFKFB2 (GeneID 5208) | -0.754 | inactive |
| PAK5 (GeneID 57144) | 0.464 | inactive |
| PKMYT1 (GeneID 9088) | 0.464 | inactive |
| POLR2B (GeneID 5431) | 0.464 | inactive |
